Experimental data taken from PubChem BioAssay AID1347426 (Functional Genomics Laboratory (NCATS/FGL), 2020).
Among all 31,000 sequences or so, about 1,400 (4.5%) were called active.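 Rule for the calls: active = median seed-adjusted z-score above 1 or below -1; inactive = the rest.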 Some of the results follow.

Assay: Novel Modifiers of Survival Motor Neuron (SMN) Protein: Gene Identification via Genome-wide siRNA Screen;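 note: luminescence tracks full-length SMN protein made from the SMN2 reporter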
Conditions: HEK293T SMN2-luciferase reporter, siRNA knockdown, 72 h; actives lie on both sides
In short: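 Luciferase signal, proportional to full-length SMN made from an SMN2 cDNA reporter in stable HEK293T cells, was read 72 h after siRNA reverse transfection. Values were expressed as MAD scores after non-targeting-control normalization and log10 conversion; seed analysis flagged off-targets.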

Row | Sequence | median seed-adjusted z-score
1 | GGAAUACCUUAUUGAUGUATT against CST8 | inactive: -0.0126
2 | GCAUCAUCAAGGCAAUUUATT against CPA1 | inactive: -0.187
3 | CAGUUUACCUGUUUUUAAATT against PTBP1 | inactive: 0.578
4 | UGACCAUGGUAGCACUUUUTT against NXF2 | inactive: -0.0513
5 | GGAACACUGUUACUAUAAATT against ADAMDEC1 | inactive: 0.0106
6 | GCAAGAAGAGAUUAGCAAATT against EIF2C2 | inactive: -0.183
7 | CAAGGUAGCUCAGCACUGATT against PEX6 | inactive: -0.281
8 | CCCACUAUGCAAAAUGUAATT against PCMT1 | inactive: 0.139
9 | GUAUGUUCAUGAACAUUAUTT against C1GALT1 | inactive: -0.394
10 | GCAGUGUACCCGUCAUUAUTT against SEMA4B | inactive: 0.185
11 | GUACUCCUGCUUUACCUAATT against IL13RA1 | inactive: 0.269
12 | CAAAUCCAGUGGUGGGUAATT against S100A6 | inactive: -0.264
13 | CAAGGAUUACAUCACGGAATT against FUT9 | inactive: 0.0444
14 | GUGGUGGGCUUAUCCUCUATT against NRXN3 | inactive: 0.897
15 | GCACUCUUCUCAUUCACGATT against ATP1B3 | inactive: -0.225
16 | GCACAGUCCUCAGUACUCATT against AMIGO3 | inactive: 0.752
17 | GGAGUGUGCUGAAGACCUATT against GFER | inactive: 0.402
18 | CUAUGAGACUGACAACUAUTT against FAAH | inactive: 0.373
19 | AGGCCCUAGUGCUCAGAUATT against MMS19 | inactive: 0.0142
20 | GCACCUUUAGGCGAAGGAATT against SENP6 | active: -1.03
21 | CCGUGAUCGUGAAGCUAGATT against PKD2 | inactive: 0.219
22 | GCUGCGGUGUGACAUCAGATT against RNH1 | inactive: 0.55

Row | Sequence | median seed-adjusted z-score
23 | GCCUUAUAAAGGGAGAAAATT against OXCT1 | inactive: 0.133
24 | GCAUCAACCAUCUCUGAGATT against VILL | inactive: 0.518
25 | GGUUGUUCCUCUAGACAAUTT against PEX1 | inactive: 0.227
26 | CCAUCAGCAUAGUACUGCATT against ZBTB1 | inactive: 0.3
27 | GAAACGGAUUUCUAUGAAATT against MELK | inactive: -0.195
28 | CCUUCCACCGGUUUCCGUUTT against THAP3 | inactive: 0.269
29 | CUAUGCAAGUGCCUAGCUATT against ICAM4 | inactive: -0.338
30 | GCUUCGAUGUUCACAAGUATT against HOOK1 | inactive: 0.202
31 | GGAUGUAGCUGUCAACUGUTT against HSD17B10 | inactive: -0.355
32 | CACCUCUUCUAUUAAUUCATT against PCDHGA11 | inactive: 0.0518
33 | GUGUAUGAACUGACCAAGATT against SMAD9 | inactive: -0.492
34 | GCAAGAUGCAUGCUCAUGATT against ZNF142 | inactive: 0.111
35 | GGAAGCUCACUGCCAUGUCTT against CBX2 | inactive: -0.215
36 | AUUUAGACAUUGGAACUAATT against PCDHB2 | inactive: 0
37 | CGAGAUCUCAAGUCUAACATT against ARAF | inactive: 0.535
38 | GUCCGGCUCUUUCCACUAATT against EIF2B1 | inactive: 0.206
39 | GGAUUGAUCUGACAUCAAATT against EPYC | inactive: 0.00264
40 | CCCAGGUUCUUGAUCGGAUTT against CHRNA5 | inactive: 0
41 | GGUACCUUUUUGAACUGUUTT against CLCN3 | inactive: -0.0801
42 | CCAAAUGAAUCAAGCAGAATT against LCORL | inactive: -0.0458
43 | GCAUUGUGAUCGAGGACAATT against HCN2 | inactive: 0
44 | CGCCUUUCAUUUUUGCUGATT against TGM1 | inactive: -0.286

Row | Sequence | median seed-adjusted z-score
45 | AGAAAUACCAGUGCAAAAATT against SNAI2 | inactive: 0
46 | CCCAAUCAGUAAGAACCAATT against CEACAM1 | inactive: -0.211
47 | CAGUAACAAUGGAAAAAGUTT against ZNF302 | inactive: 0.498
48 | GGAUGGGCAUGAAAGUCCATT against COPG2 | inactive: -0.564
49 | GCGACUAUUUUGAAUACCATT against TLK1 | inactive: -0.0133
50 | GGAUGUUACCAGGACAUUUTT against TNFAIP3 | inactive: 0.11
51 | CGAAUGACAAGUGAUCUAATT against MDH1B | active: -1.13
52 | CCAGAGGAAUUGACUACUATT against SLC12A4 | inactive: -0.0667
53 | GCUCGACACUAUCAGGGAUTT against PSMD8 | inactive: 0.0952
54 | CAAACGGCCUUACCAGAAATT against EAF1 | inactive: -0.931
55 | CCACUACAAAGGAAGUAAATT against ZNF385B | inactive: 0.446
56 | ACAAUGAACUGGAUCAACATT against TBX20 | inactive: 0.00303
57 | GGAAUUCCCUGUAAGGAGATT against ADAM29 | inactive: 0.904
58 | GCUCUUUUCACAAAUCUUUTT against TUBGCP6 | inactive: 0
59 | GCAGAGAACUGUGACUCCATT against DRD5 | inactive: -0.18
60 | GGAAGAUGCUGAAAUCAAATT against TSKS | inactive: -0.0409
61 | CGACAACUACUGUGAAAAATT against DUSP8 | inactive: -0.0326
62 | CUACCUCAUUAUUUAGCAATT against SLC7A13 | inactive: 0.121
63 | CCGUCAUGCACUUACCUUUTT against ADCY9 | inactive: 0.269
64 | GGAAGUUCGCAGAAAAGUATT against PDIA5 | inactive: 0.989
65 | GGAUGUGCAGGCUACCAAATT against LIPT1 | inactive: 0.552
66 | CCAGGGUCAUUGUGGAUUUTT against SFXN4 | inactive: -0.174

As entered above:
CAAACGGCCUUACCAGAAATT against EAF1 – median seed-adjusted z-score: inactive: -0.931
GGAAUUCCCUGUAAGGAGATT against ADAM29 – median seed-adjusted z-score: inactive: 0.904
AGAAAUACCAGUGCAAAAATT against SNAI2 – median seed-adjusted z-score: inactive: 0
GCUCGACACUAUCAGGGAUTT against PSMD8 – median seed-adjusted z-score: inactive: 0.0952
CCACUACAAAGGAAGUAAATT against ZNF385B – median seed-adjusted z-score: inactive: 0.446

(next part)

Row | Sequence | median seed-adjusted z-score
67 | CCAUUGCCUUAUUCGAAAUTT against SPZ1 | inactive: 0.535
68 | CAACUGGAUUACUAGCAUUTT against ADD3 | inactive: 0.0741
69 | CGGGAUGUAUUACUCCUUATT against KCNC1 | inactive: 0.73
70 | CUGUGAUGCAUGAUUCUAATT against HERC6 | inactive: 0.324
71 | GGAAUGGACUCAGUGAUCATT against PFTK1 | inactive: 0.088
72 | CGGAUGUCAUCGUCACAGATT against ALDH18A1 | inactive: 0.116
73 | AGCGCCUCCUGUUUCGACATT against ZNF579 | inactive: -0.0604
74 | GUAAAAGCCCUAAAACGAUTT against ARHGEF6 | inactive: -0.0593
75 | CAGUCGACUUAAACAACCATT against USP33 | inactive: -0.63
76 | GGACUUUGCCUACUCCUCATT against KLHL25 | inactive: -0.0146
77 | GCAAUUGAAGUGGUUGAUATT against UBE2Q2 | inactive: 0.146
78 | GGAAUUCGAGGAUUAUGCATT against HIAT1 | inactive: -0.0612
79 | GGACAAAGUCUUAACAAAATT against SLC30A10 | inactive: 0.523
80 | GCUAAUCCCUCUGAGAAAATT against MS4A1 | inactive: 0.414
81 | GAGCGAGUCUGUAAUCUGATT against ALDH6A1 | inactive: -0.0908
82 | CAAGGUCUGUAGUCAAAAUTT against ZNF677 | inactive: -0.441
83 | GGAUGAUUUUGCGAAUAAUTT against CAPN7 | inactive: 0.125
84 | GGAUAUAUUUGGUCAUGGATT against CPA3 | inactive: 0.192
85 | CCGGCUACCUAGUGACUAATT against PCDHGB6 | inactive: 0.34
86 | GCAAAACCCUGGAAGGAUATT against KCTD11 | inactive: 0.374
87 | CACUUGAUCUCUUAACCAUTT against 10-Sep | inactive: 0.571
88 | GAUCGAUACUUGAUAAUUATT against SUCNR1 | inactive: 0

Row | Sequence | median seed-adjusted z-score
89 | GGCAAUAAAAUCUCCAUUUTT against KLRC4 | inactive: -0.218
90 | GAGUGGAAAUUUCACCUAUTT against IFNAR2 | inactive: -0.219
91 | GAUUCUAGUUGGUGUGAAATT against MRGPRX4 | inactive: -0.113
92 | CAACCUAAAAAGAACUCGATT against FNBP1 | inactive: -0.168
93 | CGAGGAGCUGAAUUCCCAATT against SLC9A3R1 | inactive: -0.418
94 | GCCUUGCGCUAAAUCUCGATT against NSD1 | inactive: -0.372
95 | GAAUUCAUCUUCUGCUAUATT against GPR110 | inactive: 0.0158
96 | GGUGAUUGUUCAUUUGACATT against ERAS | inactive: 0.289
97 | CGGAAUACUCUGACUCGAATT against GLT8D2 | inactive: -0.619
98 | AGACAAUGAUCAUAGACAATT against IDH3B | inactive: -0.642
99 | GAGUAAAUAUCUCAGAUGATT against CHP | inactive: -0.35
100 | GACUUCUACUUUGAGAAAATT against NDST1 | inactive: -0.0763
101 | GACGAUAUCUAAUAUUACATT against KPNA1 | inactive: -0.0231
102 | GACUAGCAGGACUCCCUUUTT against VARS | inactive: 0.237
103 | GCUGUGCUCAAAACUGUCATT against PILRB | inactive: 0.0351
104 | GGCUCAGGGUGAAUUACAATT against PLA2G2D | inactive: 0.361
105 | CGUGGAGAAGGGUACUCAATT against SERPINA1 | inactive: 0.00292
106 | GGGAGAAGGCUCAAGUGUATT against SLC23A3 | inactive: -0.254
107 | GACCUAGAAAAGAAACGAATT against ANK2 | inactive: 0
